## Small-molecule microarray binding calls

Targets, with sequences 5′ to 3′:
PreQ1: PreQ1 riboswitch RNA pseudoknot, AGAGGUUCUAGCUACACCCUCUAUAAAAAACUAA. From B. subtilis. Hit rate about 0.7% of about 24,000 compounds.
SAM-II: SAM-II riboswitch RNA pseudoknot, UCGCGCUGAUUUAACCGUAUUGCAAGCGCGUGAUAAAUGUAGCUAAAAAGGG. Hit rate about 1% of about 21,000 compounds.
TPP: TPP riboswitch RNA three-way junction, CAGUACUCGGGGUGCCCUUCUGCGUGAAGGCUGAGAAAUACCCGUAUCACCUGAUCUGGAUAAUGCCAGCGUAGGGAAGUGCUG. Hit rate about 0.7% of about 24,000 compounds.

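The test is a small-molecule microarray: each compound is printed twice on a reactive slide, and binding shows as fluorescence of the labelled oligonucleotide after washing. The data file lists only calls. An earlier report of the laboratory on the PreQ1, TPP and SAM-II riboswitches (doi:10.1038/s41467-019-09493-3) used 1 µM RNA for 2 h and required a mean Z-score above 3 (spot signal-to-noise against the whole library), a score well above that on a control array, and duplicate spots agreeing (coefficient of variation under 100); it then also set aside compounds that hit other targets, which this list keeps. The cut-offs behind this list may differ. These are primary screening calls, not affinities; a compound without a hit may have attached poorly or may still bind in solution.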 A compound is marked Y if it was called a hit and N if it was screened but was not. The compounds are a random part of those screened. A dash means that no call is listed here.

structure | PreQ1 | SAM-II | TPP
Cn1c(=O)n(C)c2cc(S(=O)(=O)N3CC[C@H]4CNC[C@H]43)ccc21 | N | N | N
O=C(NCCN1CCOC1=O)c1ccc(C2CCCNC2)cc1 (stereo not drawn) | N | N | N
CC1CC(Nc2ccccc2)c2ccccc2N1C(=O)Cc1cccs1 (stereo not drawn) | N | N | N
Cc1ccc(NC(=O)Cn2nnc(C(=O)NCc3ccccc3Cl)c2N)cc1 | N | - | N
COC(=O)c1ccc(Nc2nc(-c3ccccc3O)nc3ccccc23)cc1 | N | N | N
CNc1nc(N2CCCCC2)nc(-n2cnc(SCc3ccccc3)n2)n1 | N | - | N
COC(=O)C1=C(N)OC2=C(C(=O)CCC2)C1c1cc(CN2CCOCC2)c(C)cc1C (stereo not drawn) | N | N | N
Cc1nc(N2CCC(NC3COC4(CCCC4)C3)CC2)c2ccsc2n1 (stereo not drawn) | N | N | N
Cn1cc(-c2c(C#N)c(N)nc3c2CC(N)CC3)c(-c2ccccc2)n1 (stereo not drawn) | N | N | N
C=CCOCC(O)CS(=O)(=O)Cc1ccc(Cl)cc1 (stereo not drawn) | N | N | N
NC(=O)c1cccc(CC2CCN(C(=O)CO)C2)c1 (stereo not drawn) | N | N | N
COc1ccc2oc(=O)cc(CN3CCN(CCO)CC3)c2c1 | N | - | N
O=C(OCCOCCNC1=NS(=O)(=O)c2ccccc21)c1ccc(F)cc1 | N | N | N
Cc1nc(N2CCCCC2)ncc1C(=O)N1CCOC(CN)C1 (stereo not drawn) | N | N | N
CCOC(=O)N1CCC(NCc2csc(-c3cnccn3)n2)CC1 | N | N | N
Nc1[nH]nc(C(=O)N2CCc3[nH]c(-c4ccccc4)nc3C2)c1Cl | N | N | N
NCCc1ccc(S(=O)(=O)N2CCOCC2)cc1 | N | N | N
COc1ccc(-c2nccc(N3CCC(O)C3)n2)cn1 (stereo not drawn) | N | N | N
COc1ccc(OC)c(-c2[nH]c3c(C#N)cnn3c2NC2CCCCC2)c1 | N | - | N
CCc1n[nH]c(SCC(=O)N2CCN(CC(C)C)C(CCO)C2)n1 (stereo not drawn) | N | N | N
CSc1ccc(C=C2C(O)C3CCN2CC3)cc1 (stereo not drawn) | N | N | N
Cc1nc(-c2cccc(NC(=O)N(C)CC3(CO)CCOCC3)c2)cs1 | N | N | N
CCC1(C)CC(=O)NC1=O (stereo not drawn) | N | N | N
Cc1cccc(N2CC(C)N(C(=O)c3ccc(SCCO)cc3)CC2=O)c1 (stereo not drawn) | N | N | N
CO[C@H]1CN(C(=O)C2(c3ccc(Cl)cc3)CCC2)CC[C@H]1N | N | N | N
CC(C)(C)c1[nH]nc2c1C1(C(=O)Nc3ccccc31)C(C#N)=C(N)O2 (stereo not drawn) | N | N | N
O=C(C1CCNCC1)N1CCN(c2ccccc2F)CC1.O=C(O)C(=O)O | N | N | N
Cn1c(=O)n(C)c2cc(CNCc3ccc(F)cc3)ccc21 | N | - | N
CCOc1ccc(CC(=O)C2=C(N)CC(C)(C)CC2=O)cc1OCC | N | N | N
CC1(C)CC(=O)c2cc3c(N)c(C(=O)c4ccc(F)cc4)sc3nc2C1 | N | N | N
COc1cc(-c2nc(CN3CC[C@H]4CC[C@@H](C3)N4)c(C)o2)cc2c1OCO2 | N | N | N
N#CC1=C(N)Oc2cc(O)ccc2C1c1ccccc1 (stereo not drawn) | N | N | N
Cc1cc(C)nc(Nc2ncc(O)n2-c2ccc(C)c(C)c2)n1 | N | N | N
Cc1cc(NC(=O)Nc2cc(Cl)ccc2C)no1 | N | N | N
Cc1ccc2[nH]cc(C(O)CN3CCN(c4ccccc4F)CC3)c2c1 (stereo not drawn) | N | - | N
COc1cc(-c2nc3cnccn3c2Nc2cccc(C(F)(F)F)c2)ccc1O | N | N | N
N#CC1=C(N)OC2=C(C1c1cccc(F)c1)S(=O)(=O)N(Cc1ccc(F)cc1)c1ccccc12 (stereo not drawn) | N | - | N
Cl.OC(CN1CCCCC1)CN(c1ccccc1)c1ccccc1 (stereo not drawn) | N | N | N
Cc1cccc(NC(c2cccc(F)c2)c2ccc3ccc(C)nc3c2O)n1 (stereo not drawn) | N | N | N
CCc1ccc(-c2c(-c3ccccc3)ncn2Cc2csc(N)n2)o1 | N | N | N
COc1ccc(-c2csc(Nc3ccc(C)c(C)c3)n2)cc1F | N | N | N
CC(=NNC(=O)c1cc(-c2ccc(C)o2)n[nH]1)c1ccc(N)cc1 | N | N | N
CCCCSc1nc(N)cc(N2CCC(N3CCC(O)CC3)CC2)n1 | N | N | N
O=C(NC1CCCC1)N1C[C@@H](CN2CCCCCC2)[C@@H](CO)C1 | N | N | N
Cl.Cl.OC(COCc1ccccc1)CN1CCN(c2ccccc2)CC1 (stereo not drawn) | N | N | N
CC(C)(C)n1nc(C2CC2)cc1NC(=O)Nc1ccccc1 | N | N | N
Cc1cccc(Nc2nc3nonc3nc2N2CCCCC2)c1C | N | N | N
N#Cc1c2c(c3nncn3c1Nc1ccc(Cl)cc1)CCCC2 | N | N | N
Nc1nc(NCCNc2ccccc2)cc(N2CCOCC2)n1 | N | N | N
COc1ccc(CCNC(=O)c2sc3nc4c(cc3c2N)CCCCC4)cc1OC | N | N | N
O=C(c1cc(=O)[nH]c2ccccc12)N1CCOCC1CO (stereo not drawn) | N | N | N
O=C(NCC(CO)Cc1ccsc1)c1cnc(-c2ccncc2)nc1 (stereo not drawn) | N | N | N
NC1=C(C(=O)c2ccc(F)cc2)N2CC=CC=C2C1C(=O)Nc1ccccc1 (stereo not drawn) | N | N | N
CC(=O)N[C@@H]1Cc2ccccc2[C@H]1n1ccnc1-c1cc2n(n1)CCNC2 | N | N | N
Cc1cc(Nc2cccc(Cl)c2)n2nc(-c3cccnc3)nc2n1 | N | - | N
O=C(c1ccc(SCCO)cc1)N1CCC(C(=O)N2CCCC2)CC1 | N | N | N
CN1c2ccccc2C2=C(C(c3ccc(F)cc3)C(C#N)=C(N)O2)S1(=O)=O (stereo not drawn) | N | - | N
CCNC(=O)[C@@H]1C[C@H](NC(=O)CO)CN1Cc1[nH]c2c(C)cccc2c1C | N | N | N
CCCCNc1cc(C)nc2nc(Cc3ccc(Cl)cc3)nn12 | N | - | N
COc1cccc2c1Oc1cc(N)ccc1C=C2 | N | N | N
CCc1nc(N)nc(NCCN2CCC(CO)CC2)c1C | N | N | N
Nc1nc(COc2ccc(F)cc2Cl)nc(N2CCOCC2)n1 | N | N | N
O=C(N[C@H](CO)COCc1ccccc1)c1cn(C2CCCCC2)nn1 | N | N | N
COc1ccc(C2(C(=O)N[C@H]3CN(CCO)C[C@@H]3C3CC3)CC2)cc1 | N | N | N
CCC(O)Cn1nc(-c2ccco2)nc1-c1ccccc1-n1cncn1 (stereo not drawn) | N | N | N
Cc1ccc2oc(N3CC[C@@H]4[C@@H](CCC(=O)N4CCCCO)C3)nc2c1 | N | N | N
Cc1ccc(F)cc1Nc1cc(C(C)C)nc2nc(-c3cccnc3)nn12 | N | - | N
CC(C)(C)c1ccc(CN2CCN(c3ncc(C#N)c(N)n3)CC2)cc1 | N | N | N
CC(=O)c1c(Nc2ccccc2O)oc(C)cc1=O | N | N | N

For reference, 5 entries once more:

structure	PreQ1	SAM-II	TPP
CCc1nc(N)nc(NCCN2CCC(CO)CC2)c1C	N	N	N
Cc1cccc(N2CC(C)N(C(=O)c3ccc(SCCO)cc3)CC2=O)c1 (stereo not drawn)	N	N	N
O=C(NC1CCCC1)N1C[C@@H](CN2CCCCCC2)[C@@H](CO)C1	N	N	N
Cn1c(=O)n(C)c2cc(S(=O)(=O)N3CC[C@H]4CNC[C@H]43)ccc21	N	N	N
Cc1cccc(NC(c2cccc(F)c2)c2ccc3ccc(C)nc3c2O)n1 (stereo not drawn)	N	N	N

Data from the ROBIN nucleic acid binder screens, doi:10.1002/anie.202211358.